Reference: PubChem BioAssay AID2685 (National Center for Advancing Translational Sciences (NCATS), 2010)
The list shows a part of the results. Shown are side measurements of this screen, not its main read-out; they come without a call. Most of these compounds were active or inconclusive in the main read-out, so they are no random draw. Potencies come from curve fits of mixed quality, noted in brackets.

Assay: qHTS Assay for Lipid Storage Modulators in Drosophila S3 Cells;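 for cell number change: cells counted by Cell Tracker Red CMTPX staining in the red channel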
Settings: BODIPY lipid droplet fluorescence, 18-24 h; for cell number change: measured here: cell count max response, cells fed with added oleic acid
In short: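 Drosophila S3 cells loaded with oleic acid (400 uM, as added) and compounds at several concentrations; lipid droplets imaged by 488-nm laser-scanning cytometry, 500–530 nm intensity and object ratio to cell channel. Percent activity normalized to 20 uM Triacsin C.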

[1] = measured here: cell number channel AC50, cells fed with added oleic acid
[2] = measured here: lipid fluorescence (Fed channel) AC50, cells fed with added oleic acid

Q: For `CCOc1ccc(C2=Nn3c(nnc3-c3ccc(OC)cc3)SC2)cc1`, which cell number change is on record?
A: -1.36%

Q: Which results are given for `COc1ccc2cc(CCNC(=O)C3CCCC3)c(=O)[nH]c2c1`?
A: cell number change: 136%; AC50 [1]: 4.61 µM [rising, partial curve]; AC50 [2]: 2.59 µM [rising, partial curve]

Q: For `COc1cc(C(=O)NC2CCCc3ccccc32)cc(OC)c1C` (stereo not drawn), which cell number change is on record?
A: 8.26%

Q: With `CCOC(=O)N1CCN(C(=O)CSCC(=O)Nc2nc(-c3ccc4c(c3)OCO4)cs2)CC1` as the compound, how does the cell number change read?
A: -22%

Q: And the AC50 [2]?
A: 18.4 µM [falling, single point]

Q: For `O=C(O)C1C(c2ccccc2)C(C(=O)N2CCOCC2)C1c1ccccc1` (stereo not drawn), which cell number change is on record?
A: -1.41%

Q: And the AC50 [2]?
A: 0.259 µM [falling, full curve, poor fit]

Q: With `Cc1ccccc1CC1(CO)CCCN(C(=O)Cc2c(F)ccc(F)c2F)C1` (stereo not drawn) as the compound, how does the cell number change read?
A: -28%

Q: And the AC50 [2]?
A: 29.1 µM [falling, single point]

Q: With `CC1SC(=NC(=O)c2ccncc2)NC1=O` (stereo not drawn) as the compound, how does the cell number change read?
A: 3%

Q: With `O=C(NCCNc1ccc([N+](=O)[O-])cc1Cl)c1ccccc1F` as the compound, how does the cell number change read?
A: -24.3%

Q: What does the source list for `O=C(c1ccc(CSc2ccc(Cl)cc2)cc1)N1CCOCC1`?
A: cell number change: -50.3%; AC50 [1]: 5.17 µM [falling, partial curve, poor fit]

Q: With `CCCCC(=O)Nc1cc(-c2nc3ncccc3o2)ccc1C` as the compound, how does the cell number change read?
A: 3.44%

Q: For `CC1CN(C(=O)CN2C(=O)c3ccccc3C2=O)CC(C)O1` (stereo not drawn), which AC50 [2] is on record?
A: 3.66 µM [falling, full curve]

Q: Which cell number change does the source give for `O=C(C1CCCCN1S(=O)(=O)c1ccccc1)N1CCN(C(c2ccccc2)c2ccccc2)CC1` (stereo not drawn) here?
A: -15.1%

Q: And the AC50 [2]?
A: 0.0103 µM [rising, full curve, poor fit]

Q: For `Cc1cc(C)nc(N2CCC(C(=O)NC3CC3)CC2)n1`, which AC50 [2] is on record?
A: 0.82 µM [falling, full curve]

Q: With `COc1ccc(NC(=O)C2CC(c3ccc(OC)c(OC)c3)=NO2)cc1OC` (stereo not drawn) as the compound, how does the cell number change read?
A: 24.7%

Q: What about the AC50 [2] of the same compound?
A: 29.1 µM [rising, single point]

Q: What does the source list for `O=C(NNC(=O)C12CC3CC(CC(C3)C1)C2)c1ccccc1F`?
A: cell number change: 18.3%; AC50 [2]: 0.82 µM [rising, full curve, poor fit]

Q: What does the source list for `CC(C)c1nnc(NC(=O)CCCC(=O)O)s1`?
A: cell number change: -80.5%; AC50 [1]: 29.1 µM [falling, partial curve]; AC50 [2]: 23.1 µM [falling, partial curve]

Q: With `CC(=O)N1CCN(c2ccc([N+](=O)[O-])c(-n3nc(C)cc3C)c2)CC1` as the compound, how does the AC50 [2] read?
A: 2.91 µM [falling, partial curve]

Q: For `Cc1ccc(C2=NOC(=O)/C2=C\c2ccc(C)o2)cc1`, which cell number change is on record?
A: -9.11%

Q: And the AC50 [2]?
A: 29.1 µM [falling, single point]

Q: Which results are given for `O=c1c(Cc2ccccc2)c(O)ccn1C1CCCCCCC1`?
A: cell number change: -24.2%; AC50 [2]: 39.8 µM [falling, partial curve, poor fit]

Q: Which cell number change does the source give for `COc1ccc(/C=N/OCC(=O)Nc2nc3ccccc3s2)cc1OC` here?
A: 18.9%

Q: With `CCn1cnc2c1c(=O)n(CC(=O)N1CCc3ccccc31)c(=O)n2Cc1ccccc1` as the compound, how does the cell number change read?
A: 17.9%

Q: Which cell number change does the source give for `Cc1onc(-c2ccccc2)c1C(=O)N/N=C/c1cccc(O)c1` here?
A: 6.83%

Q: What about the AC50 [2] of the same compound?
A: 16.4 µM [rising, single point]

Q: With `COc1ccc(CN2C(=O)c3cccnc3C2=O)cc1S(=O)(=O)NCc1ccco1` as the compound, how does the cell number change read?
A: 1.65%

Q: Which cell number change does the source give for `CC(=O)Nc1ccc(Nc2nc(Cl)nc(Nc3ccc(NC(C)=O)cc3)n2)cc1` here?
A: 15.3%

Q: What about the AC50 [2] of the same compound?
A: 16.4 µM [rising, single point]

Q: What does the source list for `Cc1c(Cl)c([N+](=O)[O-])nn1CC(=O)N1CCCC1`?
A: cell number change: 23.8%; AC50 [1]: 3.66 µM [rising, single point]; AC50 [2]: 4.11 µM [rising, single point]

Q: For `Cc1ccc(NC(=O)COC(=O)c2ccccc2Nc2ccccc2)cc1`, which cell number change is on record?
A: -42%

Q: What about the AC50 [1] of the same compound?
A: 8.2 µM [falling, partial curve, poor fit]

Q: What about the AC50 [2] of the same compound?
A: 0.116 µM [falling, full curve, poor fit]

Q: Which AC50 [2] does the source give for `CCOCCCNCc1cc(Cl)ccc1OCC` here?
A: 0.58 µM [falling, single point]

Q: With `O=C(CCSc1nc2ccccc2s1)N/N=C/c1c(O)ccc2ccccc12` as the compound, how does the cell number change read?
A: 100%

Q: What about the AC50 [1] of the same compound?
A: 29.1 µM [rising, single point]

Q: And the AC50 [2]?
A: 23.1 µM [falling, partial curve]

Q: With `Cc1sc2nc(CSCC(=O)N3CC(C)OC(C)C3)[nH]c(=O)c2c1C` (stereo not drawn) as the compound, how does the cell number change read?
A: -7.48%

Q: What about the AC50 [2] of the same compound?
A: 7.31 µM [rising, partial curve]

Q: For `CN(C)/C=C/C(=O)c1c(F)cccc1F`, which cell number change is on record?
A: -18.2%

Q: With `CC1CC(C)CN(C(=O)CCNS(=O)(=O)c2cccs2)C1` (stereo not drawn) as the compound, how does the cell number change read?
A: 4.79%

Q: What about the AC50 [2] of the same compound?
A: 2.06 µM [rising, single point]

Q: What does the source list for `CC1(NC(=O)Cc2c(Cl)cccc2Cl)CCS(=O)(=O)C1` (stereo not drawn)?
A: cell number change: -15.2%; AC50 [1]: 7.31 µM [falling, single point]; AC50 [2]: 6.51 µM [falling, single point]

Q: With `COc1ccc(CNCC(O)(c2ccc(F)cc2)c2ccc(F)cc2)cc1` as the compound, how does the cell number change read?
A: -60.9%

Q: And the AC50 [1]?
A: 29.1 µM [falling, single point]

Q: What about the AC50 [2] of the same compound?
A: 23.1 µM [falling, single point]

Q: Which cell number change does the source give for `CCOc1ccc(NC(=O)NNC(=O)c2cccnc2)cc1` here?
A: 50.8%

Q: And the AC50 [1]?
A: 13 µM [rising, partial curve, poor fit]

Q: For `CCOC(=O)C1=c2s/c(=C\c3ccncc3)c(=O)n2C(N)=C(C(=O)OC)C1c1ccncc1` (stereo not drawn), which cell number change is on record?
A: 50%

Q: And the AC50 [1]?
A: 20.6 µM [rising, single point]

Q: And the AC50 [2]?
A: 18.4 µM [rising, single point]

Q: What does the source list for `COc1ccc(O[C@H]2C=C[C@@H](c3ccccc3)O[C@@H]2COC(=O)CC/C(C)=N/O[C@@H](C)CN2CCCCc3nc(C)c(C)cc32)cc1`?
A: cell number change: -14.6%; AC50 [2]: 5.8 µM [falling, partial curve, poor fit]

Q: With `CCN(CC)S(=O)(=O)c1cccc(-c2nnc(SCc3nnc(-c4ccccc4)o3)n2C)c1` as the compound, how does the cell number change read?
A: 11.8%

Q: What about the AC50 [2] of the same compound?
A: 0.82 µM [rising, full curve]

Q: With `CCN1CCN(C2CCN(C(C)=O)CC2)CC1` as the compound, how does the cell number change read?
A: -13.7%

Q: With `COC(=O)C(NNc1ccc(F)cc1)(NC(=O)c1ccccc1)C(F)(F)F` (stereo not drawn) as the compound, how does the cell number change read?
A: -2.7%

Q: And the AC50 [1]?
A: 2.31 µM [rising, single point]

Q: For `COCCOC(=O)C1=C(C)N=C2SCCC(=O)N2C1c1ccc(C(=O)OC)cc1` (stereo not drawn), which cell number change is on record?
A: 10.3%
